Laboratory results: PubChem BioAssay AID1259308 (NCATS, 2017)
Aim: 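Candidate targets for better recombinant protein yield in mammalian cells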 (primary screen). Cells: human HEK293 embryonic kidney cells stably expressing firefly luciferase (HEK-CMV-Luc2-Hygro). Reagents: single siRNA against human genes, 0.8 pmol siRNA per well. Timing: 72 h. Measurement: 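Luciferase light (ONE-Glo) measured on one replicate plate set and viability (CellTiter-Glo) on the other, scaled to a negative control siRNA, with robust z-scores and luciferase per cell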. Reading the numbers: total luciferase, z-score and total luciferase, % of control: higher = more reporter protein produced; luciferase per cell, z-score: higher = more reporter output per viable cell; viable cells, % of control: higher = more viable cells. Active means: 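An siRNA counts as active if its total luciferase robust z-score exceeds 3; genes with two or more such siRNAs out of three were retested with fresh siRNAs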. Calls: active = raised luciferase; inactive = no rise.
Shown is a random part of about 59,000 reagents. Over the whole deposit, about 1,510 (2.6%) are marked active. 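Calls use total luciferase alone and ignore viability, so some active siRNAs may act by altering cell number.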

| gene | PubChem SID | total luciferase, z-score | total luciferase, % of control | luciferase per cell, z-score | viable cells, % of control | outcome |
| --- | --- | --- | --- | --- | --- | --- |
| HOXD12 (GeneID 3238) | SID160775267 | 3.13 | 144 | 2.96 | 74 | active |
| HOXD12 (GeneID 3238) | SID160775268 | -1.55 | 51 | -1.21 | 78.3 | inactive |
| HOXD12 (GeneID 3238) | SID160775269 | -1.27 | 56.6 | -0.852 | 79.1 | inactive |
| MRM3 (GeneID 55178) | SID160743144 | 1.86 | 119 | 1.79 | 83 | inactive |
| MRM3 (GeneID 55178) | SID160743145 | -0.226 | 77.4 | 1.18 | 63.5 | inactive |
| MRM3 (GeneID 55178) | SID160743146 | 0.834 | 98.5 | 0.693 | 91.7 | inactive |
| PIK3R4 (GeneID 30849) | SID160714102 | -0.123 | 79.4 | -0.726 | 107 | inactive |
| PIK3R4 (GeneID 30849) | SID160714208 | 3.15 | 145 | 2.28 | 88.7 | active |
| PIK3R4 (GeneID 30849) | SID160714313 | -1.37 | 54.7 | -1.74 | 96.6 | inactive |
| MCU (GeneID 90550) | SID160753738 | 0.425 | 90.3 | 0.397 | 90.9 | inactive |
| MCU (GeneID 90550) | SID160753739 | 0.862 | 99 | 0.309 | 102 | inactive |
| MCU (GeneID 90550) | SID160753740 | -0.337 | 75.2 | 0.41 | 75.4 | inactive |
| UCHL1 (GeneID 7345) | SID160718566 | 0.451 | 90.9 | -0.264 | 109 | inactive |
| UCHL1 (GeneID 7345) | SID160718567 | -2.45 | 33.2 | -3.23 | 86.7 | inactive |
| UCHL1 (GeneID 7345) | SID160731871 | -1.23 | 57.3 | -1.76 | 102 | inactive |
| C1QTNF6 (GeneID 114904) | SID160755094 | 0.121 | 84.3 | 0.452 | 83.6 | inactive |
| C1QTNF6 (GeneID 114904) | SID160755095 | 1.52 | 112 | 1.77 | 78.6 | inactive |
| C1QTNF6 (GeneID 114904) | SID160755096 | 0.376 | 89.4 | 0.0174 | 99.4 | inactive |
| TPD52L1 (GeneID 7164) | SID160718269 | -1.74 | 47.2 | -1.3 | 74.3 | inactive |
| TPD52L1 (GeneID 7164) | SID160718271 | -1.02 | 61.6 | -0.766 | 84.3 | inactive |
| TPD52L1 (GeneID 7164) | SID160734217 | 1.72 | 116 | 2.16 | 73.5 | inactive |
| TCL1A (GeneID 8115) | SID160719648 | -0.735 | 67.3 | -1.17 | 102 | inactive |
| TCL1A (GeneID 8115) | SID160719649 | -0.45 | 72.9 | -0.0488 | 82.6 | inactive |
| TCL1A (GeneID 8115) | SID160719650 | -1.63 | 49.4 | -1.39 | 79.7 | inactive |
| LINC03007 (GeneID 646588) | SID160733998 | -0.399 | 73.9 | -0.816 | 102 | inactive |
| LINC03007 (GeneID 646588) | SID160769941 | 1.83 | 118 | 1.68 | 85 | inactive |
| LINC03007 (GeneID 646588) | SID160769942 | 0.818 | 98.2 | 1.41 | 75.7 | inactive |
| FXYD4 (GeneID 53828) | SID160731438 | 1.5 | 112 | 0.694 | 104 | inactive |
| FXYD4 (GeneID 53828) | SID160741464 | -1.71 | 47.8 | -1.59 | 81.2 | inactive |
| FXYD4 (GeneID 53828) | SID160741465 | -0.34 | 75.1 | -0.217 | 88.9 | inactive |

8 of these entries, set out differently.
{"gene": "TPD52L1 (GeneID 7164)", "PubChem SID": "SID160718269", "total luciferase, z-score": -1.74, "total luciferase, % of control": 47.2, "luciferase per cell, z-score": -1.3, "viable cells, % of control": 74.3, "outcome": "inactive"}
{"gene": "TPD52L1 (GeneID 7164)", "PubChem SID": "SID160718271", "total luciferase, z-score": -1.02, "total luciferase, % of control": 61.6, "luciferase per cell, z-score": -0.766, "viable cells, % of control": 84.3, "outcome": "inactive"}
{"gene": "TPD52L1 (GeneID 7164)", "PubChem SID": "SID160734217", "total luciferase, z-score": 1.72, "total luciferase, % of control": 116, "luciferase per cell, z-score": 2.16, "viable cells, % of control": 73.5, "outcome": "inactive"}
{"gene": "TCL1A (GeneID 8115)", "PubChem SID": "SID160719648", "total luciferase, z-score": -0.735, "total luciferase, % of control": 67.3, "luciferase per cell, z-score": -1.17, "viable cells, % of control": 102, "outcome": "inactive"}
{"gene": "TCL1A (GeneID 8115)", "PubChem SID": "SID160719649", "total luciferase, z-score": -0.45, "total luciferase, % of control": 72.9, "luciferase per cell, z-score": -0.0488, "viable cells, % of control": 82.6, "outcome": "inactive"}
{"gene": "TCL1A (GeneID 8115)", "PubChem SID": "SID160719650", "total luciferase, z-score": -1.63, "total luciferase, % of control": 49.4, "luciferase per cell, z-score": -1.39, "viable cells, % of control": 79.7, "outcome": "inactive"}
{"gene": "LINC03007 (GeneID 646588)", "PubChem SID": "SID160733998", "total luciferase, z-score": -0.399, "total luciferase, % of control": 73.9, "luciferase per cell, z-score": -0.816, "viable cells, % of control": 102, "outcome": "inactive"}
{"gene": "LINC03007 (GeneID 646588)", "PubChem SID": "SID160769941", "total luciferase, z-score": 1.83, "total luciferase, % of control": 118, "luciferase per cell, z-score": 1.68, "viable cells, % of control": 85, "outcome": "inactive"}

Additional entries follow.
| gene | PubChem SID | total luciferase, z-score | total luciferase, % of control | luciferase per cell, z-score | viable cells, % of control | outcome |
| --- | --- | --- | --- | --- | --- | --- |
| PLA2G4A (GeneID 5321) | SID160714409 | -0.842 | 65.1 | -0.691 | 87.3 | inactive |
| PLA2G4A (GeneID 5321) | SID160714410 | -0.107 | 79.8 | -0.762 | 109 | inactive |
| PLA2G4A (GeneID 5321) | SID160714411 | -0.169 | 78.5 | -0.458 | 99 | inactive |
| CENPU (GeneID 79682) | SID160749181 | -0.871 | 64.6 | -0.0816 | 73.7 | inactive |
| CENPU (GeneID 79682) | SID160749182 | 0.838 | 98.6 | 0.362 | 100 | inactive |
| CENPU (GeneID 79682) | SID160749184 | 0.78 | 97.4 | 0.908 | 85.7 | inactive |
| GRAMD2A (GeneID 196996) | SID160760677 | 4.02 | 162 | 2.87 | 84.8 | active |
| GRAMD2A (GeneID 196996) | SID160760679 | 0.29 | 87.7 | 0.00792 | 97.7 | inactive |
| GRAMD2A (GeneID 196996) | SID160760680 | 0.27 | 87.3 | -0.0501 | 98.8 | inactive |
| NAA35 (GeneID 60560) | SID160731667 | -0.471 | 72.5 | -1.02 | 106 | inactive |
| NAA35 (GeneID 60560) | SID160747141 | 0.349 | 88.8 | -0.0821 | 101 | inactive |
| NAA35 (GeneID 60560) | SID160747142 | 0.537 | 92.6 | 0.804 | 83.7 | inactive |
| DIAPH1 (GeneID 1729) | SID160754257 | -0.0956 | 80 | -0.112 | 92 | inactive |
| DIAPH1 (GeneID 1729) | SID160754267 | -1.41 | 53.8 | -0.256 | 64.3 | inactive |
| DIAPH1 (GeneID 1729) | SID160754278 | -0.00441 | 81.8 | -0.165 | 95.5 | inactive |
| ST20-AS1 (GeneID 283687) | SID160732941 | -0.213 | 77.7 | 0.611 | 73.9 | inactive |
| ST20-AS1 (GeneID 283687) | SID160763015 | -0.364 | 74.7 | 0.805 | 67.5 | inactive |
| ST20-AS1 (GeneID 283687) | SID160763016 | 1.3 | 108 | 1.69 | 77.2 | inactive |
| TEF (GeneID 7008) | SID160717903 | -1.57 | 50.6 | -1.52 | 84.5 | inactive |
| TEF (GeneID 7008) | SID160717904 | -0.467 | 72.6 | -0.86 | 102 | inactive |
| TEF (GeneID 7008) | SID160717905 | 3.29 | 147 | 2.41 | 87.3 | active |
| UQCRQ (GeneID 27089) | SID160730959 | -0.93 | 63.4 | -1.39 | 102 | inactive |
| UQCRQ (GeneID 27089) | SID160738345 | -0.525 | 71.4 | -0.571 | 92.8 | inactive |
| UQCRQ (GeneID 27089) | SID160738346 | 0.523 | 92.3 | 0.357 | 93.9 | inactive |
| ACADL (GeneID 33) | SID160777363 | -0.233 | 77.2 | -0.951 | 111 | inactive |
| ACADL (GeneID 33) | SID160777374 | 0.621 | 94.2 | 0.406 | 94.6 | inactive |
| ACADL (GeneID 33) | SID160777386 | -0.15 | 78.9 | -0.965 | 114 | inactive |
